Measurements reported in article PMC4227754.
No constants are given. Whether binding was seen depends on the method and setting. Binding seen in cells or lysates may run through a third protein. Binding calls can cover weak binding; strength is not graded here.

Target: T1, KH-type splicing regulatory protein (KSRP) (human (endogenous in DLD-1)) (UniProt Q92945)
T1 sequence: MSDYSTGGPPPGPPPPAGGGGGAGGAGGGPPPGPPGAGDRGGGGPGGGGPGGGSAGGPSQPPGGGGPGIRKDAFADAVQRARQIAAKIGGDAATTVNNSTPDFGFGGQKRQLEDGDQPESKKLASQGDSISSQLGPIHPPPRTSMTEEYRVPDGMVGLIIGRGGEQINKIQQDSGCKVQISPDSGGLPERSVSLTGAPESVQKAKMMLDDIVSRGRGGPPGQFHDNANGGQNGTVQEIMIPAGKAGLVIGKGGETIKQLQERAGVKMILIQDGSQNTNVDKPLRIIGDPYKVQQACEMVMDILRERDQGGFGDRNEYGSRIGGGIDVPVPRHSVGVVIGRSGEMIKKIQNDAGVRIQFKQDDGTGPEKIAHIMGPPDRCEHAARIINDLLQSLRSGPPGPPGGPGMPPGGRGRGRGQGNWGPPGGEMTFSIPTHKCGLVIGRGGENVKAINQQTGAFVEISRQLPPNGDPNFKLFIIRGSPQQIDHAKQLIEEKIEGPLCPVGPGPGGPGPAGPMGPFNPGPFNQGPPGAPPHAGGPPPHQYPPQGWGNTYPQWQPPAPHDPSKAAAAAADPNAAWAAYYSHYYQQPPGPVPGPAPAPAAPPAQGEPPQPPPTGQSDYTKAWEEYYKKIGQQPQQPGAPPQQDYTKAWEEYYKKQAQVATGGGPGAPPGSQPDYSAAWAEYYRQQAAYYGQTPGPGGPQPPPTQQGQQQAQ
Assay: co-IP; extracts of CM-treated DLD-1 cells incubated with or without resveratrol; extracts digested with RNase A and RNase T1, pre-cleared, incubated with a polyclonal KSRP antibody overnight at 4°C in RIPA buffer, captured on protein A/G-agarose; western blot for PM-Scl

Substance: exosomal component PM-Scl (human (endogenous in DLD-1))
- binding: binds
